Patent publication US20160030407A1, “Method of Treating Inflammatory Lung Disease” (priority 2010, published 2016)
Several values for one entry are separate records, joined by “and”; a condition that tells them apart may be missing. Identical values can stand only once. The source gives many values for each of these; only a part stands here.

Assay: Plasma toxicokinetics after single i.v. bolus
Format: in vivo, Sprague-Dawley rats
Conditions: for Concentration in rat plasma: Anatabine 0.1 mg/kg dose group, individual rats; for Avg. Conc. (Combined Male and Female) / Avg. Conc. (Male or Female): Rat Plasma
Protocol: Six rats (3 males and 3 females) were dosed per dose group. […] Plasma and brain homogenates were stored at −80° C. until analysis.
An additional 48 rats (24 males and 24 females) received a single intravenous dose via the tail vein at the same doses as mentioned above. At 30 and 360 minutes post administration, 6 rats (3 males and 3 females) per dose group, per time point were euthanized, bled via cardiac puncture, and perfused, and brains were collected. The brains were homogenized. Blood was spun, and plasma was collected. Plasma and brain homogenate were stored at −80° C.
Four aliquots of each dose level formulation were collected and stored at −80° C. The test compound, corresponding dose level, number of animals, and sample collection times for Phase I of the study are shown in Table 3. The test compound, corresponding dose level, number of animals, and sample collection times for Phase II of the study are shown in Table 4. The physical signs of each animal were monitored following administration of the test compound.
The animals were weighed prior to dosing and received a single i.v. dose of either test compound at a volume of 5 mL/kg. Blood was collected via the venus plexus (retro-orbital) into tubes containing (K2) EDTA. No more than 0.5 mL was collected per time point. […] The brain was removed, weighed, homogenized in sterile 0.9% saline at a volume equal to its weight, and stored at −80° C.
Plasma was separated according to the instructions for MICROTAINER® brand collection tubes (3 minutes, 2000×g). Plasma was decanted into microfuge tubes and stored at −80° C. Remaining test compound was stored at −80° C.
The amount of the test agent in the supernatant was determined by liquid chromatography tandem mass spectrometry (LC/MS/MS).
Analysis. Samples were analyzed by LC/MS/MS using an Agilent 6410 mass spectrometer coupled with an Agilent 1200 high pressure liquid chromatography (HPLC) and a CTC PAL chilled autosampler, all controlled by MassHunter software (Agilent). After separation on a hydrophilic interaction liquid chromatography (HILIC) HPLC column (Sepax) using an acetonitrile-ammonium acetate/acetic acid gradient system, peaks were analyzed by mass spectrometry (MS) using ESI ionization in multiple reaction monitoring (MRM) mode. MassHunter software was used to calculate the concentration of the test compounds in samples from the peak area using the appropriate calibration curves.

Compound: C1=CCC(c2cccnc2)NC1 (racemic) [Anatabine, 1,2,3,6-tetrahydro-[2,3′]bipyridinyl]
- Concentration in rat plasma (time point 0.5 hr): 16 ng/mL (2×) and 17 ng/mL and 13 ng/mL (2×) and 30 ng/mL (2×) and 32 ng/mL and 33 ng/mL and 31 ng/mL and 34 ng/mL and 10 ng/mL
- Concentration in rat plasma (time point 1 hr): 10 ng/mL and 16 ng/mL and 11 ng/mL and 12 ng/mL (2×) and 9 ng/mL
- Concentration in rat plasma (time point 2 hr): 6 ng/mL and 8 ng/mL (3×) and 5 ng/mL and 4 ng/mL
- Concentration in rat plasma (time point 4 hr): 3 ng/mL (3×) and 5 ng/mL
- Concentration in rat plasma (time point 6 hr): 7 ng/mL and 4 ng/mL (4×) and 3 ng/mL
- Avg. Conc. (Combined Male and Female) (Anatabine 0.1 mg/kg, 0.5 hr (1st line), n = 12): 22.9 ng/mL
- Avg. Conc. (Combined Male and Female) (Anatabine 0.1 mg/kg, 0.5 hr (2nd line), n = 6): 31.7 ng/mL
- Avg. Conc. (Combined Male and Female) (Anatabine 0.1 mg/kg, 1 hr): 8.0 ng/mL
- Avg. Conc. (Combined Male and Female) (Anatabine 0.1 mg/kg, 2 hr): 8.7 ng/mL
- Avg. Conc. (Combined Male and Female) (Anatabine 0.1 mg/kg, 4 hr): 5.2 ng/mL
- Avg. Conc. (Combined Male and Female) (Anatabine 0.1 mg/kg, 6 hr (1st line), n = 6): 4.3 ng/mL
- Avg. Conc. (Combined Male and Female) (Anatabine 0.1 mg/kg, 6 hr (2nd line), n = 4): 4.5 ng/mL
- Avg. Conc. (Male or Female) (Anatabine 0.1 mg/kg, female, 0.5 hr (1st line)): 13.0 ng/mL
- Avg. Conc. (Male or Female) (Anatabine 0.1 mg/kg, female, 0.5 hr (2nd line)): 31.7 ng/mL
- Avg. Conc. (Male or Female) (Anatabine 0.1 mg/kg, female, 1 hr): 11.0 ng/mL
- Avg. Conc. (Male or Female) (Anatabine 0.1 mg/kg, female, 2 hr): 6.7 ng/mL
- Avg. Conc. (Male or Female) (Anatabine 0.1 mg/kg, female, 4 hr): 4.0 ng/mL
- Avg. Conc. (Male or Female) (Anatabine 0.1 mg/kg, female, 6 hr (1st line, N = 3, printed after 0.5 hr)): 3.7 ng/mL
- Avg. Conc. (Male or Female) (Anatabine 0.1 mg/kg, female, 6 hr (2nd line, N = 1)): 3.0 ng/mL
- Avg. Conc. (Male or Female) (Anatabine 0.1 mg/kg, male, 0.5 hr (1st line)): 15.3 ng/mL
- Avg. Conc. (Male or Female) (Anatabine 0.1 mg/kg, male, 0.5 hr (2nd line)): 31.7 ng/mL
- Avg. Conc. (Male or Female) (Anatabine 0.1 mg/kg, male, 1 hr): 12.3 ng/mL
- Avg. Conc. (Male or Female) (Anatabine 0.1 mg/kg, male, 2 hr): 6.3 ng/mL
- Avg. Conc. (Male or Female) (Anatabine 0.1 mg/kg, male, 4 hr): 3.0 ng/mL
- Avg. Conc. (Male or Female) (Anatabine 0.1 mg/kg, male, 6 hr (2nd line)): 5.0 ng/mL
- Avg. Conc. (Combined Male and Female) (Anatabine 0.75 mg/kg, 0.5 hr (2nd line), n = 6): 327.8 ng/mL
- Avg. Conc. (Combined Male and Female) (Anatabine 0.75 mg/kg, 1 hr): 162.2 ng/mL
- Avg. Conc. (Combined Male and Female) (Anatabine 0.75 mg/kg, 2 hr): 91.7 ng/mL
- Avg. Conc. (Combined Male and Female) (Anatabine 0.75 mg/kg, 4 hr): 40.0 ng/mL
- Avg. Conc. (Combined Male and Female) (Anatabine 0.75 mg/kg, 6 hr (1st line), n = 12): 19.3 ng/mL
- Avg. Conc. (Combined Male and Female) (Anatabine 0.75 mg/kg, 6 hr (2nd line), n = 6): 22.5 ng/mL
- Avg. Conc. (Combined Male and Female) (Anatabine 0.75 mg/kg, 8 hr): 10.0 ng/mL
- Avg. Conc. (Male or Female) (Anatabine 0.75 mg/kg, female, 0.5 hr (1st line)): 190.0 ng/mL
- Avg. Conc. (Male or Female) (Anatabine 0.75 mg/kg, female, 0.5 hr (2nd line)): 354.0 ng/mL
- Avg. Conc. (Male or Female) (Anatabine 0.75 mg/kg, female, 1 hr): 172.7 ng/mL
- Avg. Conc. (Male or Female) (Anatabine 0.75 mg/kg, female, 2 hr): 99.7 ng/mL
- Avg. Conc. (Male or Female) (Anatabine 0.75 mg/kg, female, 4 hr): 45.3 ng/mL
- Avg. Conc. (Male or Female) (Anatabine 0.75 mg/kg, female, 6 hr (1st line)): 18.3 ng/mL
- Avg. Conc. (Male or Female) (Anatabine 0.75 mg/kg, female, 6 hr (2nd line)): 23.0 ng/mL
- Avg. Conc. (Male or Female) (Anatabine 0.75 mg/kg, female, 8 hr): 11.0 ng/mL
- Avg. Conc. (Male or Female) (Anatabine 0.75 mg/kg, male, 0.5 hr (1st line)): 180.7 ng/mL
- Avg. Conc. (Male or Female) (Anatabine 0.75 mg/kg, male, 0.5 hr (2nd line)): 301.7 ng/mL
- Avg. Conc. (Male or Female) (Anatabine 0.75 mg/kg, male, 1 hr): 151.7 ng/mL
- Avg. Conc. (Male or Female) (Anatabine 0.75 mg/kg, male, 2 hr): 83.7 ng/mL
- Avg. Conc. (Male or Female) (Anatabine 0.75 mg/kg, male, 4 hr): 34.7 ng/mL
- Avg. Conc. (Male or Female) (Anatabine 0.75 mg/kg, male, 6 hr (1st line)): 14.0 ng/mL
- Avg. Conc. (Male or Female) (Anatabine 0.75 mg/kg, male, 6 hr (2nd line)): 22.0 ng/mL
- Avg. Conc. (Male or Female) (Anatabine 0.75 mg/kg, male, 8 hr): 9.0 ng/mL
- Avg. Conc. (Combined Male and Female) (Anatabine 1.0 mg/kg, 0.5 hr (1st line), n = 12): 319.1 ng/mL
- Avg. Conc. (Combined Male and Female) (Anatabine 1.0 mg/kg, 0.5 hr (2nd line), n = 6): 383.5 ng/mL
- Avg. Conc. (Combined Male and Female) (Anatabine 1.0 mg/kg, 1 hr): 231.3 ng/mL
- Avg. Conc. (Combined Male and Female) (Anatabine 1.0 mg/kg, 2 hr): 143.3 ng/mL
- Avg. Conc. (Combined Male and Female) (Anatabine 1.0 mg/kg, 4 hr): 51.5 ng/mL
- Avg. Conc. (Combined Male and Female) (Anatabine 1.0 mg/kg, 6 hr (1st line), n = 12): 24.3 ng/mL
- Avg. Conc. (Combined Male and Female) (Anatabine 1.0 mg/kg, 6 hr (2nd line), n = 6): 25.0 ng/mL
- Avg. Conc. (Male or Female) (Anatabine 1.0 mg/kg, female, 0.5 hr (1st line)): 237.0 ng/mL
